According to publication PMC4770304:
Results are given in words; binding and its absence hold for the method and conditions named. Binding seen in cells or lysates may run through a third protein. Some entries that bind do so weakly or less than the wild type.

Protein sequences, listed by entry. Tags and fused reporters are not part of them. Lines headed by an entry give the natural chain unless they say otherwise; changes in a name come on top.
UniProt Q27J81: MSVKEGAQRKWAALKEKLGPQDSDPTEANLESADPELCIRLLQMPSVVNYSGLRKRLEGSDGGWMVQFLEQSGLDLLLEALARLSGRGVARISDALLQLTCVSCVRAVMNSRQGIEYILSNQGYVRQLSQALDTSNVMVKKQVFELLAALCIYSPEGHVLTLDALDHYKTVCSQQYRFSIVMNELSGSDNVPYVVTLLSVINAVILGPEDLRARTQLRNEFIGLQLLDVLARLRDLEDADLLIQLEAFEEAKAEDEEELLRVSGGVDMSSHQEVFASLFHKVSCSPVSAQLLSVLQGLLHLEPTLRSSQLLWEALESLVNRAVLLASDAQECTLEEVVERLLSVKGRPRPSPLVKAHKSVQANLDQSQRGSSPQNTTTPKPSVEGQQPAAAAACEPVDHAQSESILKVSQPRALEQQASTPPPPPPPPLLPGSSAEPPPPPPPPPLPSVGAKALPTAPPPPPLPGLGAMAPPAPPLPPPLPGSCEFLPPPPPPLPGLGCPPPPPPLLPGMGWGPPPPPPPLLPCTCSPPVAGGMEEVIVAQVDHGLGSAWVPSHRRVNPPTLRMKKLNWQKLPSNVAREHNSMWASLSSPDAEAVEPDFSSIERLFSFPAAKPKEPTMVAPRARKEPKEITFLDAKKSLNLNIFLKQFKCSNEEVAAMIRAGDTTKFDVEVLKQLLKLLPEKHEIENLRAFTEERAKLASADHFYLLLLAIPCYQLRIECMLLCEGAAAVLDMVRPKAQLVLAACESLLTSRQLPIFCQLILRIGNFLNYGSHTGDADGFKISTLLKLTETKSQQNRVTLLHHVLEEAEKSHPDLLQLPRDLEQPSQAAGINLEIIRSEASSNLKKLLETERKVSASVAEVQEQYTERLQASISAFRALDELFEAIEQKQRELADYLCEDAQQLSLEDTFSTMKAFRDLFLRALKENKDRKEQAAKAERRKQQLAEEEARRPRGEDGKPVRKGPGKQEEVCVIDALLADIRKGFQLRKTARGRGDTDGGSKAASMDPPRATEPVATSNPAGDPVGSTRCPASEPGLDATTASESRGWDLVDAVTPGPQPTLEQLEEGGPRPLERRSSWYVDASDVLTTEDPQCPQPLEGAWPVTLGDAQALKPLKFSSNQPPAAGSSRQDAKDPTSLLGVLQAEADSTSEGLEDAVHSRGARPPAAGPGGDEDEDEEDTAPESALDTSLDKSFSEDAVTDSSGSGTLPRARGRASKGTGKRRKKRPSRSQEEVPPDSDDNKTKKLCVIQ
UniProt P35080: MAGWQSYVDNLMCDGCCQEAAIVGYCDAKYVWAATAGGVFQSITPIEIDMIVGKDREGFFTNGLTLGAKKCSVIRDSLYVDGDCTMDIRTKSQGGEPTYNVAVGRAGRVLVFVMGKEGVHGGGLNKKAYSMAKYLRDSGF

How the values were obtained:
[1] = target: GFP–INF2 (wild type) expressed in human podocytes (UniProt Q27J81); assay: co-IP; GFP-Trap from differentiated podocytes expressing GFP–INF2; blots probed with F-actin capping protein and profilin 2 antibodies
[2] = target: endogenous INF2 (human (endogenous in podocytes)) (UniProt Q27J81); assay: co-IP; endogenous proteins: polyclonal INF2 antibody or rabbit Ig on protein A/G agarose, lysates of differentiated podocytes (10 mM Tris pH 7.5, 150 mM NaCl, 0.5 mM EDTA, 2% NP40, 10% glycerol), 1 h at 4°C
GFP–INF2–E184K = GFP–INF2–E184K (UniProt Q27J81); assay: co-IP; HEK293T transfected with GFP–INF2 (WT or mutant), co-transfected with HACdc42QL or a control plasmid; GFP-Trap agarose, 1 h at 4°C (10 mM Tris pH 7.5, 150 mM NaCl, 0.5 mM EDTA, 2% NP40, 10% glycerol); blots
GFP–INF2–R218Q = GFP–INF2–R218Q (UniProt Q27J81); assay: as above
GFP–INF2–S186P = GFP–INF2–S186P (UniProt Q27J81); assay: as above
[3] = target: GFP–INF2–WT expressed in HEK293T cells (UniProt Q27J81); assay: as above

binding [1]: binds
binding [2]: binds
binding (GFP–INF2–E184K): binds
binding (GFP–INF2–R218Q): binds
binding (GFP–INF2–S186P): binds
binding [3]: binds
Substance: profilin 2 (from UniProt P35080 1-140)
